US10669288B2, “Lanthanide complexes based on triethylenetetramine-N,N,N′,N″,N′″,N′″-hexaacetic acid derivatives” (UNIVERSITE D'ORLEANS, priority 2017, dated 2020)
Some entries share one result that the patent states for a list of compounds.

Assay: Photophysical properties (absorption, emission, luminescence lifetime, quantum yields) in solution
Type: physicochemical
Conditions: at absorption maxima
From the text: L1 ligand and L1Nd^3+ complex (Example 2) both have broad absorption bands which extend over a wavelength range having values as high as 750 nm with maxima centered at ˜615 and ˜670 nm and molar absorption coefficients up to 5·10^3 M^−1 cm^−1. Upon excitation of the low energy absorption bands located on L1 and on the L1Nd^3+ complex, it is possible to observe broadband emission signals from the chromophore ligand centered at ˜690 nm with a shoulder at ˜740 nm. The complex L1Nd^3+, when excited at a wavelength of 650 nm, produces a narrow emission band with a maximum at 1064 nm which is characteristic of the electronic structure of Nd^3+ resulting from the transition ^4F3/2→^4I11/2. […] As a result, ligand L1 and complex L1Nd^3+ both have excitation and emission wavelengths included in the domain of the biological diagnostic window (FIG. 1).
The quantitative luminescence parameters (luminescence lifetime (i) and luminescence quantum yields centered on L1-(QL) and on Nd^3+-(QNd)) determined on the L1Nd^3+ complex are summarized in Table 3.1.
Relatively short life time values T (in the nanosecond range) and low QNd quantum yields have been measured for the near-infrared emission of Nd^3+ in comparison with the highest corresponding values that have been published to date. […]

Q: Which molar absorption coefficients does the source give for `NCCNc1ccc(NCCNC(=O)CN(CCN(CCN(CCN(CC(=O)O)CC(=O)O)CC(=O)O)CC(=O)O)CC(=O)O)c2c1C(=O)c1c(O)ccc(O)c1C2=O` [Compound L1, 3-(2-((2-((4-((2-aminoethyl)amino)-5,8-di hydroxy-9,10-dioxo-9,10-dihydroanthracen-1-yl)aminoacid)ethyl)amino)-2-oxoethyl)-6,9,12-tris(carboxymethyl)-3,6,9,12-tétraazatétradécane-1,14-dioic] here?
A: up to 5·10^3 M^−1 cm^−1
